Measured values from the supplement of paper PMC10849652.
The list shows a part of the results. Residues, ends and D or L forms follow the SMILES beside them. *: point of attachment. Cbz = O=C(OCc1ccccc1)*

Chains of the proteins cited; added tags and fusions are not shown. Lines headed by an entry give the natural chain unless they say otherwise; changes in a name come on top.
UniProt P23743: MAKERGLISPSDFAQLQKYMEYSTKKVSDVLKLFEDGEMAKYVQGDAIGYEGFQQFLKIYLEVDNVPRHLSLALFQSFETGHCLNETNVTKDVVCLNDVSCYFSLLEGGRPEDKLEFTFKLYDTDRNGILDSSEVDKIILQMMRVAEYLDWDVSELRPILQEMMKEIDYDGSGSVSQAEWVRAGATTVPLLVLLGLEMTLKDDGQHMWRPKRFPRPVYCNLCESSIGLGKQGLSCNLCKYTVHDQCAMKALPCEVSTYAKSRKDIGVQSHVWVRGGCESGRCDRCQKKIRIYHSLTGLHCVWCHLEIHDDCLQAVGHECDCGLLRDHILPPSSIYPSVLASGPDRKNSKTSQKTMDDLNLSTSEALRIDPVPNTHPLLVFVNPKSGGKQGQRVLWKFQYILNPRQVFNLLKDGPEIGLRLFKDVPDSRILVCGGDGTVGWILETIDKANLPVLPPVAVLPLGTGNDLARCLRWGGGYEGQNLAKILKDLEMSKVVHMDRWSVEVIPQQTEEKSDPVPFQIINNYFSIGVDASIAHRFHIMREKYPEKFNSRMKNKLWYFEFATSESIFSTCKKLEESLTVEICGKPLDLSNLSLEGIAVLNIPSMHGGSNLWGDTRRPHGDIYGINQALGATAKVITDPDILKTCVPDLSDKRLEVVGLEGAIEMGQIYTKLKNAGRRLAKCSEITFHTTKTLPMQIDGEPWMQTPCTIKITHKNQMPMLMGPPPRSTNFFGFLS
UniProt Q9UJV9: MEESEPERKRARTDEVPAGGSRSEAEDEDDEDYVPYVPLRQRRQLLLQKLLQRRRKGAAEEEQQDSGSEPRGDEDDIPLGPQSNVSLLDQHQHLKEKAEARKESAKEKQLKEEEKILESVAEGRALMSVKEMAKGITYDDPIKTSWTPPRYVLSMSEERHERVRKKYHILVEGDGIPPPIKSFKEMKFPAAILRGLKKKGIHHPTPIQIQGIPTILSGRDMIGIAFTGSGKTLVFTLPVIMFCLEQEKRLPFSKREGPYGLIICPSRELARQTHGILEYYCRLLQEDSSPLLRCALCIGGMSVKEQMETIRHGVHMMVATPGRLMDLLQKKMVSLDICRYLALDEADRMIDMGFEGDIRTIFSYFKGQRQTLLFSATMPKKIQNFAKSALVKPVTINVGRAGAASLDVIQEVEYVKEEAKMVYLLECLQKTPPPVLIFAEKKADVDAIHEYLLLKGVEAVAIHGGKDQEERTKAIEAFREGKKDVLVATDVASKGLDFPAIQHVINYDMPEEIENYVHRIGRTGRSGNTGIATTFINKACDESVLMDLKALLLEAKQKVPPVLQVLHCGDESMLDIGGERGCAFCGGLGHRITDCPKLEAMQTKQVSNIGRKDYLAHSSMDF
UniProt Q8IY37: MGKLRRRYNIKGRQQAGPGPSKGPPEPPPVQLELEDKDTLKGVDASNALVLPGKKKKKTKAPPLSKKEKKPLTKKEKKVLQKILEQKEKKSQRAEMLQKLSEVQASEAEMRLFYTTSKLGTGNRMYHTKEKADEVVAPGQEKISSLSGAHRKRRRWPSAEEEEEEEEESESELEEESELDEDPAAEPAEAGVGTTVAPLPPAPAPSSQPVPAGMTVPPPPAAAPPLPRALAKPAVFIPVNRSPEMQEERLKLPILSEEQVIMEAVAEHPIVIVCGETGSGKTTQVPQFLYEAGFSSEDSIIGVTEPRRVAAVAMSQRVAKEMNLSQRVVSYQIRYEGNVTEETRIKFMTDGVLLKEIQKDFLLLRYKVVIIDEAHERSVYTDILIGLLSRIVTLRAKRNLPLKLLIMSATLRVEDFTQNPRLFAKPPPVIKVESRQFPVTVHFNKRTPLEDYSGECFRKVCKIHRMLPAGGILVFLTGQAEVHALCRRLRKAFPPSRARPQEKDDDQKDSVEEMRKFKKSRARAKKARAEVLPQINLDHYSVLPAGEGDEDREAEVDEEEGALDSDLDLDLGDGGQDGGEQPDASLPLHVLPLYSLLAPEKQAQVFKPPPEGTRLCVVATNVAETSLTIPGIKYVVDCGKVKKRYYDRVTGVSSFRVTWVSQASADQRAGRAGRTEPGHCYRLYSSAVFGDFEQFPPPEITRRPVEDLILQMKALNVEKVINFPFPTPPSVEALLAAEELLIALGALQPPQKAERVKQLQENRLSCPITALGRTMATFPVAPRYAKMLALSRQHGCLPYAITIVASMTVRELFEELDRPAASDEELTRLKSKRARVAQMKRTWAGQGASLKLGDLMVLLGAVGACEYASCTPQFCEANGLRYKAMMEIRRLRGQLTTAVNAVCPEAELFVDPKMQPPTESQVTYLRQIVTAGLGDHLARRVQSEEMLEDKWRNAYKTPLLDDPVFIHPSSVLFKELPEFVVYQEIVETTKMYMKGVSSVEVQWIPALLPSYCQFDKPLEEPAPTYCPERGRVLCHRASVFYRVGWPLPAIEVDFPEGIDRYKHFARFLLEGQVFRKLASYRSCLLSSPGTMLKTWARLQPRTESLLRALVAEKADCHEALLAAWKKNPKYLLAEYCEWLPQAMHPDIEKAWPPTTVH
UniProt Q6E0U4: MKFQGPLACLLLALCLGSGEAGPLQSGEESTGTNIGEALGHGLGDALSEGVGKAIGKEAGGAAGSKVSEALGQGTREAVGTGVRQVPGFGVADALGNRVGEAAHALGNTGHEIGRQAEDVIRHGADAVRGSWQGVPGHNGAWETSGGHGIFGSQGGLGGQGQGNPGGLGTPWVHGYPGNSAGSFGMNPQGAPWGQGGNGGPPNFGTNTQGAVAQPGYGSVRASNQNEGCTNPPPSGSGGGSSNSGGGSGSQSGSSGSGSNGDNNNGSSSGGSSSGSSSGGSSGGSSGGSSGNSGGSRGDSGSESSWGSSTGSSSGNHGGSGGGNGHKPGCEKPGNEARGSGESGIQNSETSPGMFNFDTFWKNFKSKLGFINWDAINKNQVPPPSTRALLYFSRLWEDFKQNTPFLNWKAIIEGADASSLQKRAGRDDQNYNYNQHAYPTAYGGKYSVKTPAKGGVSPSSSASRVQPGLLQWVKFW
UniProt Q13206, whole entry, looked up: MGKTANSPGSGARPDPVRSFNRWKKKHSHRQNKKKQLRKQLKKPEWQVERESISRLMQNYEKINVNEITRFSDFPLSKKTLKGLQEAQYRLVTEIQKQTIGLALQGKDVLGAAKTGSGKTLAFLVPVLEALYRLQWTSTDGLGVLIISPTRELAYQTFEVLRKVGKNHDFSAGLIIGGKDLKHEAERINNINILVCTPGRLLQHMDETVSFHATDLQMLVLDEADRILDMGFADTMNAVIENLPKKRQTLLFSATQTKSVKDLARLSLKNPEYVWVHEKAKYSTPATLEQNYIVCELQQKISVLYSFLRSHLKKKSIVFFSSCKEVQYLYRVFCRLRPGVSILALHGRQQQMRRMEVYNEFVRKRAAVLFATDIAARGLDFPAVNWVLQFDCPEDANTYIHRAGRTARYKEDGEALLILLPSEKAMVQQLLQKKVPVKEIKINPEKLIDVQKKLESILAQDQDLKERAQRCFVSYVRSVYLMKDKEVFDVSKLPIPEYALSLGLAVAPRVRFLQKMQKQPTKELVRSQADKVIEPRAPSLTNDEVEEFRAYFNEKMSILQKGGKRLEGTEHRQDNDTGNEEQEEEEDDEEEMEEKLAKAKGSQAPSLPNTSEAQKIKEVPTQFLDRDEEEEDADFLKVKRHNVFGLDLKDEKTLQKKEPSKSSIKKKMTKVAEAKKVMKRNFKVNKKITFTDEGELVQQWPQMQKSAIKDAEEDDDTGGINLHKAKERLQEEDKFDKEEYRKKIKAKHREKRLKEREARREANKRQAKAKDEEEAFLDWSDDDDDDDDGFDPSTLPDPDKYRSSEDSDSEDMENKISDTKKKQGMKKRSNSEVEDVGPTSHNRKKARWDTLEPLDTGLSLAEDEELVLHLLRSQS
UniProt Q6ICB0: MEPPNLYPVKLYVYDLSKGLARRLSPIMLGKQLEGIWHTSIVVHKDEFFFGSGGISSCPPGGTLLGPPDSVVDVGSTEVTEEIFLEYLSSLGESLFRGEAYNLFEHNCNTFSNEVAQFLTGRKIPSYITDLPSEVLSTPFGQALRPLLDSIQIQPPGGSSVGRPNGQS
UniProt O15121: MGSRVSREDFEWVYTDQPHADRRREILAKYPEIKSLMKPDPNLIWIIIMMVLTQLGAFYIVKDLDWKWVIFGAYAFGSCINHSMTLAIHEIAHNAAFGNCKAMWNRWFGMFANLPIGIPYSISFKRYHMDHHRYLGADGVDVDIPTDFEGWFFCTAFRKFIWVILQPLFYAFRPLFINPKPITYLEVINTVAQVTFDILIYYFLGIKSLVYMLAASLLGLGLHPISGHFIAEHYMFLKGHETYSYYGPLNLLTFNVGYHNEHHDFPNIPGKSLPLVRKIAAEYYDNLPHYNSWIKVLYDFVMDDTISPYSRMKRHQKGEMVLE
UniProt Q8TF46, whole entry, looked up: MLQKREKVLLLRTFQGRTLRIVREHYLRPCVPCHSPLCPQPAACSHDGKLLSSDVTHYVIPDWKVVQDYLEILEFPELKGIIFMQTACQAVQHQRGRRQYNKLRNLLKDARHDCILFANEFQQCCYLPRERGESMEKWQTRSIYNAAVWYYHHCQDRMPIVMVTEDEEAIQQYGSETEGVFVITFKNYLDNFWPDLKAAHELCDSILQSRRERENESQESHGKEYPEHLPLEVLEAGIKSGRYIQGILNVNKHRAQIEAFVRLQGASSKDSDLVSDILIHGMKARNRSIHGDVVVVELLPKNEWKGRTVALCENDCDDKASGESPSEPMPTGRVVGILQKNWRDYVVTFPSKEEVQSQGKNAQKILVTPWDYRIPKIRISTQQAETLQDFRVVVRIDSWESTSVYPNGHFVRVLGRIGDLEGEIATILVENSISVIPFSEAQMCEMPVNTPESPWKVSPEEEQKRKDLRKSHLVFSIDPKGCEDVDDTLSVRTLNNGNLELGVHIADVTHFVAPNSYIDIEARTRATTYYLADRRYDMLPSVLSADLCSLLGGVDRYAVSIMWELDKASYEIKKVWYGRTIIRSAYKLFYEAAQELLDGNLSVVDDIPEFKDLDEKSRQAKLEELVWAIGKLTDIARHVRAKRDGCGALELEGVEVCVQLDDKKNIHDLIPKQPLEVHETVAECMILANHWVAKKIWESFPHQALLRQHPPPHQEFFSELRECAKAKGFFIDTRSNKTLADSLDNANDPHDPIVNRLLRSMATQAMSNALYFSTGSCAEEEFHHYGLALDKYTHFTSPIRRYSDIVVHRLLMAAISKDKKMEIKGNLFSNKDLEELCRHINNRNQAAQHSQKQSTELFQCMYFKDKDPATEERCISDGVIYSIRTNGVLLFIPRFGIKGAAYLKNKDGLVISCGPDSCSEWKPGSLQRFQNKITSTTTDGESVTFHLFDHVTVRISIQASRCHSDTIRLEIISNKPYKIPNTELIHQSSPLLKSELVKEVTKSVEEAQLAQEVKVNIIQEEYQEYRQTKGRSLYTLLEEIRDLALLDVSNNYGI
UniProt Q6UX07: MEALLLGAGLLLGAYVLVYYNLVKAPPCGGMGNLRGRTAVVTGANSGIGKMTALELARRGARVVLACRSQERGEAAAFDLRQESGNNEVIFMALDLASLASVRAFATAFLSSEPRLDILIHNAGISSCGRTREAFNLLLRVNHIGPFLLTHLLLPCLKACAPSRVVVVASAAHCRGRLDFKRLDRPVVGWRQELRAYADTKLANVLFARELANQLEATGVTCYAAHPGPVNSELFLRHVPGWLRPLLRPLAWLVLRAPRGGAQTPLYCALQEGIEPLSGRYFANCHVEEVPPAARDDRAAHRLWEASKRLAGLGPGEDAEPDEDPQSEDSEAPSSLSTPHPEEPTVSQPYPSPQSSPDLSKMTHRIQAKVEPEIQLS
UniProt Q7L5Y6, whole entry, looked up: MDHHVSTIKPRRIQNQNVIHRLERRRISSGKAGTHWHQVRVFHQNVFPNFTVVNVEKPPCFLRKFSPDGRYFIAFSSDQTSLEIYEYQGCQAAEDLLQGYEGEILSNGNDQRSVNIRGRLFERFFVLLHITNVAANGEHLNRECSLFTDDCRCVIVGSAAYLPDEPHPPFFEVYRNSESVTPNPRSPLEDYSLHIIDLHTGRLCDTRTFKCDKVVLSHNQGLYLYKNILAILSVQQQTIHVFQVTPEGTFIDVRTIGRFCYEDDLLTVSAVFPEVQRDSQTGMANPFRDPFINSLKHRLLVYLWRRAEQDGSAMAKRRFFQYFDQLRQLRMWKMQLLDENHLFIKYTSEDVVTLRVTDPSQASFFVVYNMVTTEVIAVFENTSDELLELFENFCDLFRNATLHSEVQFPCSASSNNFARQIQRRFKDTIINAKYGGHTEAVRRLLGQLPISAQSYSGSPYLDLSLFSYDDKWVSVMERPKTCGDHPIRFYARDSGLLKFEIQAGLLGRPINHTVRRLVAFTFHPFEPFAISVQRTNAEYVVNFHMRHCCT

What follows are targets tested with CC(C)C1=C2N=C(C=C(N2N=C1)NCC3=CC=CC=C3)NCCCCCCN (assay: log2 fold change, soluble protein after heating vs DMSO (PISA); higher = thermal stabilisation; K562 cells, 10 uM, 30 min; active = over 0.2 and 3.5 SD of the protein, either way, in both replicates (recomputed)).
Procedure, shortened: (§1)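 K562 cells at 2×10^6 cells/mL were treated for 30 min with 10 μM compound, and aliquots were heated for 3 min over 48°C-58°C before pooling. Extraction used PBS with 0.5% NP-40 at 4°C, and soluble protein was the supernatant after 21,000xg for 90 min, measured by TMTpro 16plex LC-MS/MS with channel sums equalised. Thermal stability values, relative to control samples and from duplicates, are log2 fold changes.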

log2 fold change, inactive:
DGKA (UniProt P23743) -0.222, DDR1 isoform 5 (UniProt Q08345) -0.248, DDX41 (UniProt Q9UJV9) -0.023, DIDO1 (UniProt Q9BTC0) -0.163, DHX34 (UniProt Q14147) 0.271, DENND10 (UniProt Q8TCE6) -0.119, DEF8 (UniProt Q6ZN54) -0.276, DDAH1 (UniProt O94760) 0.05, DHX37 (UniProt Q8IY37) -0.051, DDB2 (UniProt Q92466) 0.145, DMKN (UniProt Q6E0U4) -0.237, DICER1 (UniProt Q9UPY3) -0.005, DDX10 (UniProt Q13206) -0.44, DESI1 (UniProt Q6ICB0) 0.071, DDX39B (UniProt H0Y400) 0.393, DENND1C (UniProt Q8IV53) 0.031, DDX27 (UniProt Q96GQ7) -0.177, DEGS1 (UniProt O15121) 0.074, DIS3L (UniProt Q8TF46) -0.451, DHRS13 (UniProt Q6UX07) -0.007, DMXL2 isoform 3 (UniProt Q8TDJ6) -0.197

These targets were tested with CC(C)C[C@@H](C=O)NC(=O)[C@H](CC(C)C)NC(=O)[C@H](CC(C)C)NC(=O)OCc1ccccc1 in the same assay as above.
Procedure, shortened: as §1

log2 fold change, inactive:
DGKA (UniProt P23743) 0.189, DDR1 isoform 5 (UniProt Q08345) 0.256, DDX41 (UniProt Q9UJV9) 0.06, DIDO1 (UniProt Q9BTC0) -0.01, DHX34 (UniProt Q14147) -0.017, DENND10 (UniProt Q8TCE6) 0.016, DDB2 (UniProt Q92466) 0.111, DMKN (UniProt Q6E0U4) -0.055, DDX24 (UniProt Q9GZR7) 0.361, DICER1 (UniProt Q9UPY3) 0.032, DEF6 (UniProt Q9H4E7) 0.049, DDX27 (UniProt Q96GQ7) 0.104, DIS3L (UniProt Q8TF46) 0.043, DET1 isoform 2 (UniProt Q7L5Y6) 0.106, DHRS13 (UniProt Q6UX07) 0.144, DMXL2 isoform 3 (UniProt Q8TDJ6) -0.047
